This note sets out measurements from PubChem BioAssay AID248 (DTP/NCI, 2004).

Each structure is given as a SMILES string. The list shows only some results of the screen, not a fair sample: it is rich in T/C values a quarter to a half above the control, in often repeated tests (any T/C) and in doses without a T/C. Further doses and runs are listed elsewhere. T/C is the treated group as % of the vehicle group. Some doses have a count of surviving animals in place of a T/C: the source files T/C as zero there, which appears to mark a toxic dose or a test without result, not a measured value. Some survivor counts are full or nearly so, which does not show that the dose was tolerated: the source hardly ever lists a survival T/C far under the control, and the zero likely stands for such cases as well. Counts of survivors are from the toxicity check (mostly the fifth day) where no day follows; animals may have died later. Schedules are NCI's codes, read here as Q, the interval in days (D) or hours (H), X, the number of doses. Some doses were run more than once; their values stand side by side, smallest first. Where survival is the endpoint, the PubChem record calls one and a half times the control and up active, and a quarter to a half above the control has no call in these data; cut-offs in other NCI protocols can differ. Additions like (4×) count equal records among those shown. Some T/C values carry the count of animals alive at the toxicity check (mostly the fifth day); where none is given, no animal had died by that day.

The test system of the assay is L1210 leukemia ip in BDF1 mice, survival T/C. In words: NCI In Vivo Anticancer Drug Screen. Data for tumor model L1210 Leukemia (intraperitoneal) in B6D2F1 (BDF1) mice. Particulars: higher T/C = longer survival.
[1] abbreviates: T/C endpoint: mean survival time, dose: 400.0 mg/kg/injection, schedule: Q01DX009 (ip), vehicle: Klucel (hydroxypropylcellulose) (HPC).
Setting [2] is: T/C endpoint: mean survival time, dose: 2250.0 mg/kg/injection, schedule: Q02DX010 (ip), vehicle: carboxymethylcellulose (CMC).

As for `OCCN1CCN(CC/C=C2\c3ccccc3Sc3ccc(Cl)cc32)CC1`, the T/C was 130 % of control [5 of 6 alive] (T/C endpoint: mean survival time, dose: 6.25 mg/kg/injection, schedule: Q01DX009 (ip), vehicle: saline); 133 and 135 % of control (T/C endpoint: mean survival time, dose: 25.0 mg/kg/injection, schedule: Q04DX003 (ip), vehicle: saline). The survivor count is 0 of 6 (T/C endpoint: mean survival time, dose: 6.25 mg/kg/injection, schedule: Q03HX024 (ip), vehicle: saline); 4 of 6 (T/C endpoint: mean survival time, dose: 25.0 mg/kg/injection, schedule: Q01DX009 (ip), vehicle: saline); 0 of 6 (T/C endpoint: mean survival time, dose: 32.0 mg/kg/injection, schedule: Q01DX009 (ip), vehicle: saline); 0 of 6 and 2 of 6 (T/C endpoint: mean survival time, dose: 50.0 mg/kg/injection, schedule: Q01DX009 (ip), vehicle: saline); 0 of 4 (T/C endpoint: mean survival time, dose: 50.0 mg/kg/injection, schedule: Q04DX003 (ip), vehicle: saline); 0 of 6 (T/C endpoint: mean survival time, dose: 64.0 mg/kg/injection, schedule: Q01DX009 (ip), vehicle: saline). In addition, the survivor count was 4 of 6 (T/C endpoint: mean survival time, dose: 80.0 mg/kg/injection, schedule: Q04DX003 (ip), vehicle: saline); 0 of 4 (T/C endpoint: mean survival time, dose: 100.0 mg/kg/injection, schedule: Q04DX003 (ip), vehicle: saline); 0 of 6 (T/C endpoint: mean survival time, dose: 128.0 mg/kg/injection, schedule: Q01DX009 (ip), vehicle: saline); 1 of 6 (T/C endpoint: mean survival time, dose: 150.0 mg/kg/injection, schedule: Q01DX001 (ip), vehicle: saline); 1 of 6 (T/C endpoint: mean survival time, dose: 160.0 mg/kg/injection, schedule: Q04DX003 (ip), vehicle: saline); 0 of 4 (T/C endpoint: mean survival time, dose: 200.0 mg/kg/injection, schedule: Q04DX003 (ip), vehicle: saline). For the same molecule, the survivor count reads like this: (T/C endpoint: mean survival time, dose: 256.0 mg/kg/injection, schedule: Q01DX009 (ip), vehicle: saline) 0 of 6; (T/C endpoint: mean survival time, dose: 400.0 mg/kg/injection, schedule: Q04DX003 (ip), vehicle: saline) 0 of 4.

`O=c1c(N=Nc2ccc(Br)cc2)c(O)n(-c2ccccc2Cl)c(=S)n1-c1ccccc1`: where the note is “T/C endpoint: mean survival time, dose: 37.5 mg/kg/injection, schedule: Q01DX001 (ip), vehicle: Klucel (hydroxypropylcellulose) (HPC)”, the T/C is 125 % of control.

For `CCOC(=O)N/N=C/c1ccccc1`, the T/C is, setting by setting: (T/C endpoint: mean survival time, dose: 100.0 mg/kg/injection, schedule: Q01DX001 (ip), vehicle: Klucel (hydroxypropylcellulose) (HPC)) 141 % of control; (T/C endpoint: mean survival time, dose: 100.0 mg/kg/injection, schedule: Q01DX001 (ip), vehicle: saline) 141 % of control.

With `OCCC[P+](c1ccccc1)(c1ccccc1)c1ccccc1`, the survivor count was 6 of 6 (T/C endpoint: mean survival time, dose: 100.0 mg/kg/injection, schedule: Q01DX009 (ip), vehicle: Klucel (hydroxypropylcellulose) (HPC)); 4 of 6 (T/C endpoint: mean survival time, dose: 200.0 mg/kg/injection, schedule: Q04DX003 (ip), vehicle: Klucel (hydroxypropylcellulose) (HPC)); 0 of 6 (T/C endpoint: mean survival time, dose: 400.0 mg/kg/injection, schedule: Q04DX003 (ip), vehicle: Klucel (hydroxypropylcellulose) (HPC)).

Consider `CC(CCc1cccc2ccccc12)(C(=O)O)C(=O)O`, for which the survivor count (T/C endpoint: mean survival time, dose: 400.0 mg/kg/injection, schedule: Q01DX009 (ip), vehicle: saline sonified) is 2 of 6.

On to `CCCCCCCCCCCSc1ccc2ccccc2c1`, for which the survivor count (T/C endpoint: mean survival time, dose: 400.0 mg/kg/injection, schedule: Q01DX001 (ip), vehicle: Klucel (hydroxypropylcellulose) (HPC)) is on record as 6 of 6.

`COc1cc([N+](=O)[O-])ccc1NC(=O)Oc1ccc(F)cc1Cl`: the survivor count under setting [1] is 2 of 6.

Consider `Cn1nnn2c(-c3ccccc3)nnc12`, for which the survivor count (T/C endpoint: mean survival time, dose: 400.0 mg/kg/injection, schedule: Q01DX009 (ip), vehicle: saline with Tween-80) is given as 3 of 6.

Regarding `C=C1CC2(CCC23COC(=O)C3=C)OC1=O` (configuration not stated), the survivor count runs as follows: (T/C endpoint: mean survival time, dose: 12.5 mg/kg/injection, schedule: Q01DX001 (ip), vehicle: other) 1 of 3; (T/C endpoint: mean survival time, dose: 100.0 mg/kg/injection, schedule: Q01DX001 (ip), vehicle: other) 0 of 3; (T/C endpoint: mean survival time, dose: 200.0 mg/kg/injection, schedule: Q01DX001 (ip), vehicle: other) 0 of 3; (T/C endpoint: mean survival time, dose: 400.0 mg/kg/injection, schedule: Q01DX001 (ip), vehicle: other) 0 of 3.

As to `CCOC(N)=O`, the T/C runs as follows: (T/C endpoint: mean survival time, dose: 430.0 mg/kg/injection, schedule: Q02DX010 (ip), vehicle: carboxymethylcellulose (CMC)) 102, 109, 110 (2×), 112, 117 % of control; (T/C endpoint: mean survival time, dose: 500.0 mg/kg/injection, schedule: Q01DX010 (ip), vehicle: saline) 125 % of control; (T/C endpoint: mean survival time, dose: 670.0 mg/kg/injection, schedule: Q02DX010 (ip), vehicle: carboxymethylcellulose (CMC)) 101, 104, 108, 110, 118 % of control (2×); (T/C endpoint: mean survival time, dose: 1000.0 mg/kg/injection, schedule: Q02DX010 (ip), vehicle: carboxymethylcellulose (CMC)) 99, 101, 109, 113, 114, 118 % of control; (T/C endpoint: mean survival time, dose: 1500.0 mg/kg/injection, schedule: Q02DX010 (ip), vehicle: carboxymethylcellulose (CMC)) 68, 72, 76, 77, 81, 97 % of control; (T/C endpoint: mean survival time, dose: 1601.0 mg/kg/injection, schedule: Q01DX001 (ip), vehicle: saline) 125 % of control. Besides, the T/C under setting [2] is 78 % of control. Also, the survivor count (T/C endpoint: mean survival time, dose: 900.0 mg/kg/injection, schedule: Q01DX009 (ip), vehicle: saline) is 10 of 10; the survivor count (T/C endpoint: mean survival time, dose: 1000.0 mg/kg/injection, schedule: Q01DX010 (ip), vehicle: saline) is on record as 6 of 6; the survivor count under setting [2] is listed as 6 of 6; the survivor count (T/C endpoint: mean survival time, dose: 2390.0 mg/kg/injection, schedule: Q01DX001 (ip), vehicle: saline) is given as 3 of 10; the survivor count (T/C endpoint: median survival time, dose: 1000.0 mg/kg/injection, schedule: Q01DX009 (ip), vehicle: saline) is 6 of 6.

Take `O=S(=O)(Nc1c(Cl)c(Cl)c(Cl)c(Cl)c1NS(=O)(=O)c1ccccc1)c1ccccc1`: the survivor count under setting [1] is given as 6 of 6.

For the molecule `COC(=O)c1cc(C)[nH]c(=O)c1CN`, where the note is “T/C endpoint: mean survival time, dose: 300.0 mg/kg/injection, schedule: Q01DX001 (ip), vehicle: water”, the survivor count is given as 3 of 6.

Take `N#Cc1cscc1C#N`: the survivor count was 2 of 6 (T/C endpoint: mean survival time, dose: 200.0 mg/kg/injection, schedule: Q01DX009 (ip), vehicle: Klucel (hydroxypropylcellulose) (HPC)) and 0 of 6 under setting [1].

`CC(C)/C=N\NC(=O)c1ccc[n+](C)c1`: the survivor count (T/C endpoint: mean survival time, dose: 200.0 mg/kg/injection, schedule: Q01DX009 (ip), vehicle: saline with Tween-80) is given as 3 of 3.
